Measurements taken from PMC12041376.
These are yes or no findings as the source states them, for the method shown. For part of these data: Binding seen in cells or lysates may run through a third protein. Some entries that bind do so weakly or less than the wild type. Each block holds one substance with its values, some of them ahead of it.

Sequences of proteins named here, by UniProt entry; tags and fusion partners are left off.
UniProt Q92993: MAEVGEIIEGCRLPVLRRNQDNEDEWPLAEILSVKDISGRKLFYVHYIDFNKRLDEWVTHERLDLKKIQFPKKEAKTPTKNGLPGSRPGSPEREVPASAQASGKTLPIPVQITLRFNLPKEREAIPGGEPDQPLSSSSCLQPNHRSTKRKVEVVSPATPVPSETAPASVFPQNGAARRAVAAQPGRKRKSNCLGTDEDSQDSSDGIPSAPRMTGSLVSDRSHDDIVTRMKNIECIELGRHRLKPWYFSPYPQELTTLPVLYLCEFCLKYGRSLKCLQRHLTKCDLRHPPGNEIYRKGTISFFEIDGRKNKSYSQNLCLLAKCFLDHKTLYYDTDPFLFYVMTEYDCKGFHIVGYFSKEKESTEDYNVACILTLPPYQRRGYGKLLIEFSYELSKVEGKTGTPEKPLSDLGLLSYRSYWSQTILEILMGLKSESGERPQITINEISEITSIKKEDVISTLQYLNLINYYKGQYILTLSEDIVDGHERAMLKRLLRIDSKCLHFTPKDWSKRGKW
UniProt Q69YN4: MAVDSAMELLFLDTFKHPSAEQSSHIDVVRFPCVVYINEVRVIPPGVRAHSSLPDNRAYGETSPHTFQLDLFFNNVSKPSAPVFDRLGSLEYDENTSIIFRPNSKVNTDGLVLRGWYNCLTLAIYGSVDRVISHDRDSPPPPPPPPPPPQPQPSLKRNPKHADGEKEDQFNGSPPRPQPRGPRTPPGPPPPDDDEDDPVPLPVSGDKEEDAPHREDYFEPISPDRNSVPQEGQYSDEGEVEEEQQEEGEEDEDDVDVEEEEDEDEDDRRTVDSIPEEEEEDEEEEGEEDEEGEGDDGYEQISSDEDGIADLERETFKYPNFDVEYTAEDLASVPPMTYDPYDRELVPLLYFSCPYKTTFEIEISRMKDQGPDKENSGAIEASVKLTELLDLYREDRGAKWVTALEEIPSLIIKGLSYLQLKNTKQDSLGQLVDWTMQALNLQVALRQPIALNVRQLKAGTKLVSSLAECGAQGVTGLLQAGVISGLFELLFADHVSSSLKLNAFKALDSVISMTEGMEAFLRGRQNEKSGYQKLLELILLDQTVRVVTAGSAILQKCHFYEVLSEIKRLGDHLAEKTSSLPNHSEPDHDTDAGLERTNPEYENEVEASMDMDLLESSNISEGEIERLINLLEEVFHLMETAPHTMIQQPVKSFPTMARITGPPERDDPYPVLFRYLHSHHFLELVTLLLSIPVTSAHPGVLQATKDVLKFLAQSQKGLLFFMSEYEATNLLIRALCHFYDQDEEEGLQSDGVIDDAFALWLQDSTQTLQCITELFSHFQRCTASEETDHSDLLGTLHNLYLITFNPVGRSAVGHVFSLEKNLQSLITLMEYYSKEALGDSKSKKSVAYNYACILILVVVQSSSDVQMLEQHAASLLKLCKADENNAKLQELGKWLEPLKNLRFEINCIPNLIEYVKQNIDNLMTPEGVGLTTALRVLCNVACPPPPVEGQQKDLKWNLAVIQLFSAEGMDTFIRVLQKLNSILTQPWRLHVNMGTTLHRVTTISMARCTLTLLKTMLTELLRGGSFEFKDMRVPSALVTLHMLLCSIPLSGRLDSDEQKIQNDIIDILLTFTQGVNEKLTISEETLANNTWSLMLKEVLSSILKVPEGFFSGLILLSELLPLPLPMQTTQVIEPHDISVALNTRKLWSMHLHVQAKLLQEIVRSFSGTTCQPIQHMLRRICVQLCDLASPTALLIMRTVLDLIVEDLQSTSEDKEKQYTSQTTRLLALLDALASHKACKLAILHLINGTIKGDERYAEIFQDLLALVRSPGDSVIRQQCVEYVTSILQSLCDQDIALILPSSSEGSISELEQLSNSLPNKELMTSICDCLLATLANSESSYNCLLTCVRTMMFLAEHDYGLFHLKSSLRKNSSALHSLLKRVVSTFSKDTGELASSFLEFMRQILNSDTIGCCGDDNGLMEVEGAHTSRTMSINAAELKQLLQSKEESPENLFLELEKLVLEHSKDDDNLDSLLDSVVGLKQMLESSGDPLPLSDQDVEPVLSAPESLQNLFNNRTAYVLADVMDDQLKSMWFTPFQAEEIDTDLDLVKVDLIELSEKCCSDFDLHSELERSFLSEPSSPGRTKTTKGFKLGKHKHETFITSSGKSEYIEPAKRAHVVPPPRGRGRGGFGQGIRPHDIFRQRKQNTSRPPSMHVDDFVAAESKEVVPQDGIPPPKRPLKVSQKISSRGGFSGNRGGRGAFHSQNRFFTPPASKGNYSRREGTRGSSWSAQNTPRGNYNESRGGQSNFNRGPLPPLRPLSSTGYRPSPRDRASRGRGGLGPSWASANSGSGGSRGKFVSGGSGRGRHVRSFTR

Legend:
GST-TIP60 fusion protein = GST-TIP60 fusion protein (UniProt Q92993); assay: pull-down; about 100 µg GST-TIP60 immobilised on 50 µL glutathione agarose (1 h, 4 °C), incubated with 100 µg Flag-KIAA1429 fusion protein and GST at 4 °C overnight; eluted with 10 mM glutathione pH 8.0; Western blot; both purified
[1] = target: TIP60 (endogenous) (human (endogenous in HCC cells)) (UniProt Q92993); assay: co-IP; endogenous proteins in HCC cell lysates (IP lysis buffer, pre-cleared with protein A/G beads); protein A/G beads with anti-TIP60, anti-KIAA1429 or anti-IgG, 4 °C overnight; Western blot
SFB-Flag-TIP60 = SFB-Flag-TIP60 (UniProt Q92993); assay: co-IP; 293T cells transfected with KIAA1429 and SFB-Flag-TIP60 plasmids; IP lysis buffer; immunoprecipitation with anti-SFB agarose beads; Western blot for KIAA1429 and Flag

binding (GST-TIP60 fusion protein): binds
Substance: Flag-KIAA1429 fusion protein (from UniProt Q69YN4 1-1812)

binding [1]: binds
Substance: KIAA1429 (endogenous) (from UniProt Q69YN4 1-1812)

binding (SFB-Flag-TIP60): binds
Substance: KIAA1429 (expressed in 293T cells) (from UniProt Q69YN4 1-1812)
